# Data as given in US20230181579A1, “SELECTIVE TREATMENT OF CANCERS HAVING HISTONE H3 MUTATIONS OR ABERRAN TLEVELS OF DNA OR HISTONE METHYLATION, ACETYLATION OR DEFECTS IN HOMOLOGOUS RECOMBINATION” (Florida State University Research Foundation, Inc., priority 2020, published 2023).
# Test system: H3.3 K27M mutant DIPG cells
# Test: Survival assay, patient derived H3.3 K27M mutant DIPG cells
# Format: cell-based, human
# Details: combined with ionizing radiation; concentration not given
# Method: Survival assays. To determine the sensitivity of cells to NHEJ inhibitors, IDH inhibitors, HATi or HDACi in combination with ionizing radiation, 25,000 cells were seeded per well in triplicate in 12-well cell culture plates in the presence of the indicated NHEJ inhibitors. Following reattachment of the cells to the bottom of the culture plate, they were irradiated with the indicated doses of X-rays using an X-Rad 320 irradiator (Precision X-Ray). Accurate X-ray dose delivery was determined using UNIDOS E dosimeter. Surviving cells were measured 7 days post-irradiation by first dissociating the cells with trypsin and then counting them on a Z3 Coulter counter (Beckman-Coulter). Experiments were typically repeated at least 3 times.
smiles,measurement,value
O=C(CCCCCCC(=O)Nc1ccccc1)NO [Vorinostat],"survival of H3 K27M mutant cancer cells, inhibitor with ionizing radiation",synergistic with ionizing radiation
